Results on one compound are retold here after PMC5486949 (SLAS discovery, 2017).

As a reminder, the pIC50 is the IC50 on a negative log10 scale, so that one unit is a factor of ten.

pIC50: −log10 of the molar value.

The subject of this assay is ERRα. The assay can be described thus: ERR luciferase reporter gene assay, antagonist mode. Format: cell-based. The following applies: Homo sapiens, read-out: ERRα (Antagonist) IC50.

Take `Clc1ccccc1C(c1ccccc1)(c1ccccc1)n1ccnc1` [Clotrimazole]: the pIC50 is 4.93.
